Source: the supplement of paper PMC10849652
This is one part of the list. Residues, ends and D or L forms follow the SMILES beside them. *: point of attachment. Cbz = O=C(OCc1ccccc1)*

The chains behind the UniProt entries cited, without tags or fusion partners. Where a name states a change or a piece, a line headed by the entry shows the natural chain unless it says otherwise.
UniProt Q96IG2: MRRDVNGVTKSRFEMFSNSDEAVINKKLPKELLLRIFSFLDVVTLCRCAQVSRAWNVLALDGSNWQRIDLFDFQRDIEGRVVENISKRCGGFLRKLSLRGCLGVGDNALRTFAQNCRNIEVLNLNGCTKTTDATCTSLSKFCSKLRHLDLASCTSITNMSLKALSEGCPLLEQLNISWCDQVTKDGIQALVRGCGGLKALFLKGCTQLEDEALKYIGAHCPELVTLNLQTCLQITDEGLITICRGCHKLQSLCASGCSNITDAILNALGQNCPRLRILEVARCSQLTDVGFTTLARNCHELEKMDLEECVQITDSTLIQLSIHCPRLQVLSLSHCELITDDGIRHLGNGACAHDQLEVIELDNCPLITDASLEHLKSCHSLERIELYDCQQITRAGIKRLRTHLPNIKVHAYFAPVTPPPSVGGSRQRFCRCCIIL
UniProt P09038, whole entry, looked up: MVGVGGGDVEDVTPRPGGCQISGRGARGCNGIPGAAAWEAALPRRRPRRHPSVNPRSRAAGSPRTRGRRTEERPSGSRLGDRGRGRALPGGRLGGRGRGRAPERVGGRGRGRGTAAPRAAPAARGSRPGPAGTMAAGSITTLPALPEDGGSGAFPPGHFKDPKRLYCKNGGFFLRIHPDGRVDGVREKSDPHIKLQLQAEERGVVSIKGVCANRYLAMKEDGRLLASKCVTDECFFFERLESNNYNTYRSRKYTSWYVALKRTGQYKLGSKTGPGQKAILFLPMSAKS
UniProt Q9HA64: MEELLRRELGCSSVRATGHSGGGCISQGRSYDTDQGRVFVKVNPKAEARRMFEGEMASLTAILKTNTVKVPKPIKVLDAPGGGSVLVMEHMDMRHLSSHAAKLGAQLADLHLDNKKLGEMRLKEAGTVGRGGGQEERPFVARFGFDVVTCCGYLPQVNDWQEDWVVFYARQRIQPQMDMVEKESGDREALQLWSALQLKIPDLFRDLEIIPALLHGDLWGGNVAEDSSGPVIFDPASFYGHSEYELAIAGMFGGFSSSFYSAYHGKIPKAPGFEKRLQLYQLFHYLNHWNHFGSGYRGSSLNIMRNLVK
UniProt Q9NYY8: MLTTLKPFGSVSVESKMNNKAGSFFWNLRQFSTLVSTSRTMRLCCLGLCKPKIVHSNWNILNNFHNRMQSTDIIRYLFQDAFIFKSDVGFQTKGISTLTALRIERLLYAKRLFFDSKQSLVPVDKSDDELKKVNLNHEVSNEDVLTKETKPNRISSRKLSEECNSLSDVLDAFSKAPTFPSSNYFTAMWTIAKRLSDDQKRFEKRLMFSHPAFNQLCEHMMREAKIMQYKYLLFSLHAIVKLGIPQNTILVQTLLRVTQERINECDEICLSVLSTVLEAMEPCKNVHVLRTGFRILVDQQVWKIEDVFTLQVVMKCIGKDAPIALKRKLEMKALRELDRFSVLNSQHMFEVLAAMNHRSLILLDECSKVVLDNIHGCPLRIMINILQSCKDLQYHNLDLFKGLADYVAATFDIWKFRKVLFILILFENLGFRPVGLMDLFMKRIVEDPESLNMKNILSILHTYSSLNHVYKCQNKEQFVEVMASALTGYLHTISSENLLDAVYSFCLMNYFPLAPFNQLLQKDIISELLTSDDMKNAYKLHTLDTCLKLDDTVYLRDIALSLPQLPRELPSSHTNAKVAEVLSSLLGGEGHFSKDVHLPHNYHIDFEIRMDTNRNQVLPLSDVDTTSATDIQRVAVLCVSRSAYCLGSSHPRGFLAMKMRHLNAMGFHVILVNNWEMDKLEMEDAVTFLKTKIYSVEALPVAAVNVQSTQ
UniProt Q92520: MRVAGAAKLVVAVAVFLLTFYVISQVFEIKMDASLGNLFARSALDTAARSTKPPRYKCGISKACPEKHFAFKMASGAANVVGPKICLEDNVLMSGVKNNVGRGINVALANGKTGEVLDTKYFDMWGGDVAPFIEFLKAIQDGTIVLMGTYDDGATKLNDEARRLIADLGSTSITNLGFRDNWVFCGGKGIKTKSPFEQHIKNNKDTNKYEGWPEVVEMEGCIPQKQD
UniProt Q13643: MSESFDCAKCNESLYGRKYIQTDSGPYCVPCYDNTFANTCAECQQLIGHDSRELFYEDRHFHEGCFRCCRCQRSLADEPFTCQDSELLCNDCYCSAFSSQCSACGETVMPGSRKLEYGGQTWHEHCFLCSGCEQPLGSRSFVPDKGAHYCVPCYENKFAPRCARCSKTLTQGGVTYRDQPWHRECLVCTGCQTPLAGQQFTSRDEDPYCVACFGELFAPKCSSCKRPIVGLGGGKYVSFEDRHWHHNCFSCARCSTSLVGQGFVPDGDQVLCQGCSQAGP
UniProt Q52LJ0: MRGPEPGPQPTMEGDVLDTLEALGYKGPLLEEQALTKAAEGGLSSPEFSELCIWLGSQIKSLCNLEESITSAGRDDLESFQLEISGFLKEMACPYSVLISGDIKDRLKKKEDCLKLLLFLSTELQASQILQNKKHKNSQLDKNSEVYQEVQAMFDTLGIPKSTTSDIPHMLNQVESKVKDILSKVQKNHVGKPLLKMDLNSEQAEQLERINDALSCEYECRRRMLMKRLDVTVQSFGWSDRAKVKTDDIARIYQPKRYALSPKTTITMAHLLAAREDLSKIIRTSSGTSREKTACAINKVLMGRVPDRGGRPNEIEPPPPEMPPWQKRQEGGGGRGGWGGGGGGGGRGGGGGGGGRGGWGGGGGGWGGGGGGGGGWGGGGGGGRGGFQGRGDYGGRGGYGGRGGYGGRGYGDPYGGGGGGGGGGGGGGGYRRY
UniProt P07954: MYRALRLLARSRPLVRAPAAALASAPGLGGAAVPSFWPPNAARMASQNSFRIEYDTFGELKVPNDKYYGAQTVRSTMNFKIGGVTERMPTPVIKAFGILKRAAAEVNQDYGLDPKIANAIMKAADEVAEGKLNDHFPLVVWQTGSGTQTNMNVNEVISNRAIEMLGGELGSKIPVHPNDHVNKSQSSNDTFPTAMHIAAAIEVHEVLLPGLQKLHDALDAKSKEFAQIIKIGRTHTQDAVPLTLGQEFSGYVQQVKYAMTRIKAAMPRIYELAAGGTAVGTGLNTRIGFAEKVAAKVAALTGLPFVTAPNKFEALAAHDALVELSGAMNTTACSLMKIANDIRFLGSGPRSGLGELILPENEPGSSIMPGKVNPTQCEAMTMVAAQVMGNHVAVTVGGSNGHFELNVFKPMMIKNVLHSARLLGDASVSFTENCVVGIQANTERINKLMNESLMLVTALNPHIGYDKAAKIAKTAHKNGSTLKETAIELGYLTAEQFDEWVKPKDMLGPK
UniProt P23142: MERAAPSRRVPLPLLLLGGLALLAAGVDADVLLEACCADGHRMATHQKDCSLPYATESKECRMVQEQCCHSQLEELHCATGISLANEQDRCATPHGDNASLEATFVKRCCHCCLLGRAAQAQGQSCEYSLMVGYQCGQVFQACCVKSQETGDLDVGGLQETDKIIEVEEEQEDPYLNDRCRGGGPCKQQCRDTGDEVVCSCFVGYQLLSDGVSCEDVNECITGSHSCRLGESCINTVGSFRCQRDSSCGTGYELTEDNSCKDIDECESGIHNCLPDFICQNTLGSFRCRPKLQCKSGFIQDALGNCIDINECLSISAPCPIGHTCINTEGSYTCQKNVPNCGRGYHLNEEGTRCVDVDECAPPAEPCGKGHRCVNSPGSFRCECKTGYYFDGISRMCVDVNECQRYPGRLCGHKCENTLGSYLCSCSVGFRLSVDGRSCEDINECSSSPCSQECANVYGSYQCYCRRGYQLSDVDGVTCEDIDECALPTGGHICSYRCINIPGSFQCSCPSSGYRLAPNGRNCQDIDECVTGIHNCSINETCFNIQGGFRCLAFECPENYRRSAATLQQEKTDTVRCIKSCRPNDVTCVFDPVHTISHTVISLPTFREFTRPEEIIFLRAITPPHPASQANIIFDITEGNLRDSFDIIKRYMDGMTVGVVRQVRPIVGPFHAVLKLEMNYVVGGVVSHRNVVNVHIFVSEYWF
UniProt O95302: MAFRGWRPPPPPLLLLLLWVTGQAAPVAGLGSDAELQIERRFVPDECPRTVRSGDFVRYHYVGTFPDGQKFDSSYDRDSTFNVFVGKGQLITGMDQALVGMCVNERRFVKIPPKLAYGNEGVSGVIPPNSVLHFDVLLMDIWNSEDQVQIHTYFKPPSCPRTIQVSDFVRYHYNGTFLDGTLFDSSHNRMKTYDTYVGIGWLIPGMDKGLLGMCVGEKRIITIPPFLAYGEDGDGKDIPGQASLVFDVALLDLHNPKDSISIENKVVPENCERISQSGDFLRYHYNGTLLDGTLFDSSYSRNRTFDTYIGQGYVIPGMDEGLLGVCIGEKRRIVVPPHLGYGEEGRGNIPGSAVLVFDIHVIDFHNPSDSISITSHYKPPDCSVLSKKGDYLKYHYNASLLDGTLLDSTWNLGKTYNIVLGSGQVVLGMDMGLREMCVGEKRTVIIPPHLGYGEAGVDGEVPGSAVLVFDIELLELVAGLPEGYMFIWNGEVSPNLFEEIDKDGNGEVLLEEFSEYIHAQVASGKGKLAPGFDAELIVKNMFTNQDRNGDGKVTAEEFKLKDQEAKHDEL
UniProt Q9Y285: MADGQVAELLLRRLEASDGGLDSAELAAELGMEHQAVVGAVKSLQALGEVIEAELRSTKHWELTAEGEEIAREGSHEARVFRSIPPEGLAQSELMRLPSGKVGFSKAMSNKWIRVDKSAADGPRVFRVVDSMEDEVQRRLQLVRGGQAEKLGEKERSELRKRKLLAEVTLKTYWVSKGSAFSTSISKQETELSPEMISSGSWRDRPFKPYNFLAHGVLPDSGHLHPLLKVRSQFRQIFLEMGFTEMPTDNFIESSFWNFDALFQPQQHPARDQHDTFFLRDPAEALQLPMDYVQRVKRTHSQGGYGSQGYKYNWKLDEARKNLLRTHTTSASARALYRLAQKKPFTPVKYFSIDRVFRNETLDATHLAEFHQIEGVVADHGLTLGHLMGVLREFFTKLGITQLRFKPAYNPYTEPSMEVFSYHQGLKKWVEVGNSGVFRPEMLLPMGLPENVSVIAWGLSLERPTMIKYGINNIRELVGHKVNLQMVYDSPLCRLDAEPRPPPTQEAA
UniProt Q9NUQ9: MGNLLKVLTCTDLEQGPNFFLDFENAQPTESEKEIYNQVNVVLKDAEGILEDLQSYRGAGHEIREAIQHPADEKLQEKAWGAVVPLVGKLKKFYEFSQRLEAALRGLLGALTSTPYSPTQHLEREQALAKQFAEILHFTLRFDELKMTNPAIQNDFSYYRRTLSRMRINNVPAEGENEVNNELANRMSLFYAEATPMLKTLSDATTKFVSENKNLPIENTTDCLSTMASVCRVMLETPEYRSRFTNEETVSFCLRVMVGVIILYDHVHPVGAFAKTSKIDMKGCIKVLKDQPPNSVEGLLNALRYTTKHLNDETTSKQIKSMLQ
UniProt A6NHQ2: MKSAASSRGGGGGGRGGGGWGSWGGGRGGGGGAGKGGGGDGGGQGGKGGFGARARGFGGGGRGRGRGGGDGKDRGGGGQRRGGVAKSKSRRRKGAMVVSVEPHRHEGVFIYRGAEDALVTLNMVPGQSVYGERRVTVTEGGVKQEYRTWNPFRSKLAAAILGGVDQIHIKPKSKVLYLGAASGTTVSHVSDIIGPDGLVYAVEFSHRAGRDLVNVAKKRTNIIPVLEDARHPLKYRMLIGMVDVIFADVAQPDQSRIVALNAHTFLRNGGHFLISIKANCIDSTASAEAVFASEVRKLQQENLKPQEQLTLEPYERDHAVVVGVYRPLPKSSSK
UniProt Q8NEZ5: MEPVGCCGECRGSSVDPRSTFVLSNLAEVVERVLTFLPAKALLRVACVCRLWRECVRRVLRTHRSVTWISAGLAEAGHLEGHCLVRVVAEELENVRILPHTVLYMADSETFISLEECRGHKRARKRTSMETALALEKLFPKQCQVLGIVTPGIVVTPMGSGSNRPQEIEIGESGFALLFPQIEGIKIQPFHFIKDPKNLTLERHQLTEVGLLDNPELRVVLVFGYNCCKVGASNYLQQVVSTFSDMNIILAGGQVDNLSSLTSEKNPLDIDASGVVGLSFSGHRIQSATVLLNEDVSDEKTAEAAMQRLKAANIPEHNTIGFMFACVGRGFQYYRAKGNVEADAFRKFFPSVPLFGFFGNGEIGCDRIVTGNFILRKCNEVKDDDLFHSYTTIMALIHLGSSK

Tests used:
Experiment in all cases: log2 fold change, soluble protein after heating vs DMSO (PISA); higher = thermal stabilisation; K562 cells, 10 uM, 30 min; active = over 0.2 and 3.5 SD of the protein, either way, in both replicates (recomputed)
erlotinib = compound: C#Cc1cccc(Nc2ncnc3cc(OCCOC)c(OCCOC)cc23)c1 [erlotinib]
Summary of the method: (§1)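 Soluble protein was defined as the supernatant after 21,000xg for 90 min. It came from K562 cells at 2×10^6 cells/mL given 10 μM compound for 30 min, heated in aliquots for 3 min across 48°C-58°C, pooled, and extracted in PBS with 0.5% NP-40 at 4°C, and was quantified by TMTpro 16plex LC-MS/MS with equalised channel sums. Thermal stability against control samples, from duplicates, is reported as log2 fold change.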

[1] = compound: C/C(=N\NC(=O)C1=CC(=CC=C1)S(=O)(=O)N2CCOCC2)/C3=C(C=CC(=C3)Cl)O
Summary of the method: as §1

[2] = compound: C1=CC(=C(C=C1Cl)C2=NC3=NC=CN=C3C(=N2)NC4=CC=NC=C4)F
Summary of the method: as §1

[3] = compound: C1=CC(=CC=C1C2=NC3=C(N2)C=C(C=C3)C(=O)N)OC4=CC=C(C=C4)Cl
Summary of the method: as §1

[4] = compound: C1=CC2=C(C=CC(=C2)/C=C\3/C(=O)NC(=NCC4=CC=CS4)S3)N=C1
Summary of the method: as §1

[5] = compound: C1=CC2=NC=CN=C2C=C1/C=C/3\C(=O)NC(=O)S3
Summary of the method: as §1

[6] = compound: C1=CC=C(C=C1)C2=NC(=C(N2)C3=CC=NC=C3)C4=CC(=C(C=C4)Cl)O
Summary of the method: as §1

[7] = compound: C1=CC=C2C(=C1)C3=NNC4=CC=CC(=C43)C2=O
Summary of the method: as §1

[8] = compound: C1CCN(C1)C(=O)NC2=CC=CC(=C2)NC3=NC=C(C(=N3)NCCC4=CN=CN4)Br
Summary of the method: as §1

[9] = compound: C1CN(CCC1(CC2=CC=C(C=C2)Cl)N)C3=NC=NC4=C3C=CN4
Summary of the method: as §1

IRAK-1-4 Inhibitor I = compound: C1COCCN1CCN2C3=CC=CC=C3N=C2NC(=O)C4=CC(=CC=C4)[N+](=O)[O-] [IRAK-1-4 Inhibitor I]
Summary of the method: as §1

ibrutinib = compound: C=CC(=O)N1CCC[C@@H](n2nc(-c3ccc(Oc4ccccc4)cc3)c3c(N)ncnc32)C1 [ibrutinib]
Summary of the method: as §1

[10] = compound: CC(=O)c1cnc2ccc(-c3cc(Cl)c(O)c(Cl)c3)nc2c1N[C@H]1CC[C@H](CN(C)C)CC1
Summary of the method: as §1

ralimetinib = compound: CC(C)(C)Cn1c(N)nc2ccc(-c3[nH]c(C(C)(C)C)nc3-c3ccc(F)cc3)nc21 [ralimetinib]
Summary of the method: as §1

[11] = compound: CC(C)(O)CC(=O)NCCn1ccc2ncnc(Nc3ccc(Oc4cccc(C(F)(F)F)c4)c(Cl)c3)c21
Summary of the method: as §1

[12] = compound: CC(C)C1=C2N=C(C=C(N2N=C1)NCC3=CC=CC=C3)NCCCCCCN
Summary of the method: as §1

[13] = compound: CC(C)C[C@@H](C=O)NC(=O)[C@H](CC(C)C)NC(=O)[C@H](CC(C)C)NC(=O)OCc1ccccc1
Summary of the method: as §1

pinometostat = compound: CC(C)N(C[C@H]1O[C@@H](n2cnc3c(N)ncnc32)[C@H](O)[C@@H]1O)[C@H]1C[C@@H](CCc2nc3cc(C(C)(C)C)ccc3[nH]2)C1 [pinometostat]
Summary of the method: as §1

[14] = compound: CC1=C(C(CC(=O)N1)C2=CC=C(C=C2)C(F)(F)F)C(=O)NC3=C(C=C4C(=C3)C=NN4)F
Summary of the method: as §1

[15] = compound: CC1=C(C2=C(C=C1)C(=O)C3=CC=CC=C3N2CCCN)C
Summary of the method: as §1

Measured: log2 fold change

FBXL20 (UniProt Q96IG2)
inactive: erlotinib 0.085 | [1] 0.015 | [2] 0.123 | [3] -0.078 | [4] 0.067 | [5] 0.049 | [6] 0.123 | [7] -0.033 | [8] 0.032 | [9] 0 | IRAK-1-4 Inhibitor I 0.074 | ibrutinib -0.053 | [10] -0.017 | ralimetinib 0.068 | [11] 0.014 | [12] -0.043 | [13] 0.067 | pinometostat 0.016 | [14] -0.044 | [15] 0.047

FAM98A (UniProt Q8NCA5)
inactive: erlotinib -0.018 | [1] -0.102 | [2] -0.144 | [3] 0.037 | [4] -0.035 | [5] -0.022 | [6] 0.083 | [7] 0.067 | [8] 0.085 | [9] -0.057 | IRAK-1-4 Inhibitor I -0.017 | ibrutinib -0.006 | [10] -0.005 | ralimetinib 0.06 | [11] -0.001 | [12] -0.08 | [13] 0.102 | pinometostat 0.247 | [14] -0.022 | [15] -0.057

FGF2 (UniProt P09038)
inactive: erlotinib 0.003 | [1] -0.011 | [2] -0.015 | [3] 0.027 | [4] 0.024 | [5] 0.05 | [6] -0.001 | [7] -0.042 | [8] -0.059 | [9] 0.085 | IRAK-1-4 Inhibitor I -0.005 | ibrutinib 0.122 | [10] -0.081 | ralimetinib 0.017 | [11] 0.049 | [12] -0.093 | [13] 0.054 | pinometostat 0.041 | [14] -0.057 | [15] -0.031

FN3KRP (UniProt Q9HA64)
inactive: erlotinib -0.019 | [1] 0.014 | [2] 0.004 | [3] 0.007 | [4] 0.033 | [5] -0.01 | [6] -0.027 | [7] -0.036 | [8] -0.039 | [9] 0.05 | IRAK-1-4 Inhibitor I 0.053 | ibrutinib 0.015 | [10] 0.032 | ralimetinib -0.039 | [11] -0.008 | [12] 0.077 | [13] -0.01 | pinometostat -0.083 | [14] 0.03 | [15] -0.019

FASTKD2 (UniProt Q9NYY8)
inactive: erlotinib 0.006 | [1] 0.053 | [2] -0.01 | [3] 0.022 | [4] 0.022 | [5] 0.056 | [6] 0.04 | [7] -0.01 | [8] -0.025 | [9] 0.028 | IRAK-1-4 Inhibitor I 0.02 | ibrutinib -0.012 | [10] -0.038 | ralimetinib -0.018 | [11] -0.042 | [12] -0.13 | [13] -0.025 | pinometostat -0.008 | [14] -0.006 | [15] -0.027

FAU (UniProt P62861)
inactive: erlotinib -0.134 | [1] -0.166 | [2] -0.588 | [3] 0.026 | [4] -0.323 | [5] -0.035 | [6] -0.166 | [7] 0.08 | [8] 0.014 | [9] -0.158 | IRAK-1-4 Inhibitor I -0.085 | ibrutinib 0.056 | [10] 0.093 | ralimetinib 0.182 | [11] 0.099 | [12] -0.043 | [13] 0.265 | pinometostat 0.251 | [14] 0.128 | [15] -0.699

FAM3C (UniProt Q92520)
inactive: erlotinib 0.023 | [1] -0.009 | [2] -0.008 | [3] 0.002 | [4] -0.028 | [5] 0.031 | [6] -0.06 | [7] 0.012 | [8] 0.061 | [9] 0.032 | IRAK-1-4 Inhibitor I 0.01 | ibrutinib 0.004 | [10] -0.003 | ralimetinib -0.059 | [11] 0.015 | [12] -0.027 | [13] -0.013 | pinometostat -0.022 | [14] -0.024 | [15] -0.047

2 consecutive entries already listed, for reference:
FN3KRP (UniProt Q9HA64)
inactive: erlotinib -0.019 | [1] 0.014 | [2] 0.004 | [3] 0.007 | [4] 0.033 | [5] -0.01 | [6] -0.027 | [7] -0.036 | [8] -0.039 | [9] 0.05 | IRAK-1-4 Inhibitor I 0.053 | ibrutinib 0.015 | [10] 0.032 | ralimetinib -0.039 | [11] -0.008 | [12] 0.077 | [13] -0.01 | pinometostat -0.083 | [14] 0.03 | [15] -0.019

FASTKD2 (UniProt Q9NYY8)
inactive: erlotinib 0.006 | [1] 0.053 | [2] -0.01 | [3] 0.022 | [4] 0.022 | [5] 0.056 | [6] 0.04 | [7] -0.01 | [8] -0.025 | [9] 0.028 | IRAK-1-4 Inhibitor I 0.02 | ibrutinib -0.012 | [10] -0.038 | ralimetinib -0.018 | [11] -0.042 | [12] -0.13 | [13] -0.025 | pinometostat -0.008 | [14] -0.006 | [15] -0.027

Next results follow:

FHL3 (UniProt Q13643)
inactive: erlotinib 0.068 | [1] 0.014 | [2] 0.025 | [3] 0.001 | [4] 0.007 | [5] 0.032 | [6] -0.026 | [7] -0.029 | [8] 0.034 | [9] 0.023 | IRAK-1-4 Inhibitor I 0.034 | ibrutinib 0.057 | [10] 0.023 | ralimetinib -0.035 | [11] 0.017 | [12] 0.073 | [13] 0.006 | pinometostat -0.04 | [14] 0.036 | [15] -0.032

FAM98B (UniProt Q52LJ0)
inactive: erlotinib 0.037 | [1] 0.011 | [2] -0.009 | [3] 0.019 | [4] -0.042 | [5] 0.038 | [6] 0.021 | [7] -0.067 | [8] 0.018 | [9] -0.136 | IRAK-1-4 Inhibitor I 0.013 | ibrutinib -0.033 | [10] 0.012 | ralimetinib 0.043 | [11] 0.018 | [12] -0.102 | [13] 0.049 | pinometostat 0.156 | [14] -0.064 | [15] 0.088

FH (UniProt P07954)
inactive: erlotinib -0.015 | [1] 0.036 | [2] 0.044 | [3] -0.01 | [4] 0.026 | [5] 0.073 | [6] 0.039 | [7] 0 | [8] 0.02 | [9] 0.015 | IRAK-1-4 Inhibitor I 0.028 | ibrutinib -0.025 | [10] -0.045 | ralimetinib -0.027 | [11] -0.037 | [12] -0.023 | [13] -0.051 | pinometostat -0.018 | [14] -0.035 | [15] -0.006

FBLN1 (UniProt P23142)
inactive: erlotinib -0.118 | [1] -0.156 | [2] 0.007 | [3] 0.138 | [4] 0.075 | [5] 0.006 | [6] -0.025 | [7] -0.27 | [8] 0.155 | [9] 0.319 | IRAK-1-4 Inhibitor I 0.034 | ibrutinib 0.232 | [10] 0.106 | ralimetinib 0.013 | [11] 0.233 | [12] 0.145 | [13] 0.029 | pinometostat -0.041 | [14] 0.068 | [15] -0.203

FKBP9 (UniProt O95302)
inactive: erlotinib -0.033 | [1] 0.077 | [2] -0.026 | [3] 0.032 | [4] 0.019 | [5] -0.002 | [6] -0.034 | [7] -0.005 | [8] 0.045 | [9] 0.005 | IRAK-1-4 Inhibitor I -0.01 | ibrutinib 0.005 | [10] -0.013 | ralimetinib 0.001 | [11] 0.029 | [12] -0.013 | [13] 0.03 | pinometostat 0.033 | [14] 0.012 | [15] 0.033

FARSA (UniProt Q9Y285)
inactive: erlotinib 0.021 | [1] 0.069 | [2] -0.013 | [3] -0.006 | [4] 0.058 | [5] -0.002 | [6] 0.065 | [7] 0.034 | [8] -0.031 | [9] -0.029 | IRAK-1-4 Inhibitor I -0.024 | ibrutinib -0.008 | [10] 0.016 | ralimetinib 0.061 | [11] -0.054 | [12] -0.096 | [13] 0.01 | pinometostat 0.013 | [14] -0.02 | [15] 0.007

FAM49B (UniProt Q9NUQ9)
inactive: erlotinib -0.033 | [1] 0.026 | [2] 0.021 | [3] 0.056 | [4] 0.011 | [5] 0.035 | [6] 0.008 | [7] 0.009 | [8] 0.012 | [9] 0.024 | IRAK-1-4 Inhibitor I 0.036 | ibrutinib -0.012 | [10] -0.022 | ralimetinib -0.043 | [11] -0.051 | [12] 0.004 | [13] -0.019 | pinometostat -0.045 | [14] -0.001 | [15] 0.032

FBLL1 (UniProt A6NHQ2)
inactive: erlotinib -0.083 | [1] -0.051 | [2] -0.132 | [3] -0.069 | [4] -0.207 | [5] 0.056 | [6] -0.139 | [7] -0.047 | [8] -0.116 | [9] -0.058 | IRAK-1-4 Inhibitor I -0.048 | ibrutinib 0.119 | [10] -0.025 | ralimetinib 0.127 | [11] 0.08 | [12] 0.28 | [13] 0.116 | pinometostat 0.261 | [14] -0.018 | [15] 0.16

FBXO22 (UniProt Q8NEZ5)
inactive: erlotinib 0 | [1] 0.053 | [2] 0.019 | [3] 0.014 | [4] 0.123 | [5] 0.005 | [6] 0.012 | [7] 0.055 | [8] -0.047 | [9] -0.006 | IRAK-1-4 Inhibitor I 0.016 | ibrutinib 0.054 | [10] -0.025 | ralimetinib -0.029 | [11] -0.017 | [12] 0.042 | [13] 0.034 | pinometostat -0.016 | [14] -0.019 | [15] 0.182
